Results: PubChem BioAssay AID651789 (National Center for Advancing Translational Sciences (NCATS), 2012)
The shares of active, inactive and inconclusive entries below differ from those in the screen. Potencies of inconclusive entries are doubtful fits and often do not repeat. Active and inactive are the calls of the source. Calls come from the whole dose curve; as a rule, active = well fitted inhibition curve with a large enough effect; inconclusive = small, poorly fitted or top-dose-only effect; inactive = no such curve, though single readings can be large or run the other way.

assay: Acumen qHTS Assay for Inhibitors of the mTORC1 Signaling Pathway in WT MEF Cells: Hit Validation; conditions: Acumen imaging; series mostly up to 37.3 µM; activity change, negative = inhibition: at the top concentration; note: nearly all actives have a fitted effect of over 60% in size;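 for activity change, negative = inhibition: phospho-rpS6 Ser235/236 immunofluorescence normalised to propidium iodide cell stain; percent of cells above a cutoff set by 7.5 nM rapamycin treated wells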
Method in brief: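 Read-out is immunofluorescent phospho-rpS6 (Ser235/236) normalised to PI-stained cell number, reported as % active cells using a 7.5 nM rapamycin threshold. Cells: WT or Tsc2-/-, p53-/- MEFs, compound-exposed 24 h at 37C; PI count also tracks viability.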
Potency is the fitted concentration of half-maximal effect.

Row | Compound | Potency | activity change, negative = inhibition
1 | CCCN1CCN(c2ncnc3sc(C(=O)Nc4ccc(OC(F)(F)F)cc4)c(C)c23)CC1 | inconclusive: 26.1 µM [inhibitor, single point] | 
2 | Cc1cc(-c2ccc(S(=O)(=O)Nc3cccc(C)c3C)s2)on1 | inconclusive: 1.47 µM [inhibitor, full curve, poor fit] | 
3 | Cc1cc(OCC(=O)NCC2(N3CCN(C)CC3)CCCCC2)cc(C)c1Cl | inconclusive: 8.26 µM [inhibitor, partial curve] | 
4 | CCOC(=O)c1c(NC(=O)c2ccc(S(=O)(=O)N3CCC(C)CC3)cc2)sc2c1CCN(C)C2 | inconclusive: 10.4 µM [inhibitor, partial curve] | 
5 | CCN(CC)CCOC(=O)c1ccc(NC(=O)c2nn(-c3ccc(C)cc3)c(=O)c3c2c2ccccc2n3C)cc1 | active: 1.17 µM | 
6 | Cc1ccc(C(=O)CC2(O)C(=O)N(Cc3ccccc3)c3ccccc32)c(C)c1 (stereo not given) | inconclusive: 0.131 µM [inhibitor, full curve, poor fit] | 
7 | CCOc1ccc(CC(=O)NC2CC(=O)N(c3ccc4c(c3)OCCO4)C2)cc1 (stereo not given) |  | inactive: 38.6%
8 | COc1ccc(-c2ccc(CCC(=O)O)n2-c2cc(Cl)ccc2O)cc1 | inconclusive: 5.85 µM [inhibitor, partial curve, poor fit] | 
9 | Cc1cccc(N2CCN(C(=O)C3CCN(C(=O)c4cc5sccc5n4C)CC3)CC2C)c1 (stereo not given) | inconclusive: 11.7 µM [inhibitor, partial curve] | 
10 | Cc1ccc(NC(=O)Cn2cc(C(=O)C3CCCCC3)c3ccccc32)cc1 |  | inactive: 43%
